These are yes or no findings as the source states them, for the method shown. Some results given as binding are weak or reduced against the parent protein; the word gives no strength.
Biological target: biotinylated LRP1 Cluster III (human) (UniProt Q07954)
Experiment: BLI, biotinylated LRP1 cluster III immobilised

The chains behind the UniProt entries cited, without tags or fusion partners. Where a name states a change or a piece, a line headed by the entry shows the natural chain unless it says otherwise.
UniProt Q07954: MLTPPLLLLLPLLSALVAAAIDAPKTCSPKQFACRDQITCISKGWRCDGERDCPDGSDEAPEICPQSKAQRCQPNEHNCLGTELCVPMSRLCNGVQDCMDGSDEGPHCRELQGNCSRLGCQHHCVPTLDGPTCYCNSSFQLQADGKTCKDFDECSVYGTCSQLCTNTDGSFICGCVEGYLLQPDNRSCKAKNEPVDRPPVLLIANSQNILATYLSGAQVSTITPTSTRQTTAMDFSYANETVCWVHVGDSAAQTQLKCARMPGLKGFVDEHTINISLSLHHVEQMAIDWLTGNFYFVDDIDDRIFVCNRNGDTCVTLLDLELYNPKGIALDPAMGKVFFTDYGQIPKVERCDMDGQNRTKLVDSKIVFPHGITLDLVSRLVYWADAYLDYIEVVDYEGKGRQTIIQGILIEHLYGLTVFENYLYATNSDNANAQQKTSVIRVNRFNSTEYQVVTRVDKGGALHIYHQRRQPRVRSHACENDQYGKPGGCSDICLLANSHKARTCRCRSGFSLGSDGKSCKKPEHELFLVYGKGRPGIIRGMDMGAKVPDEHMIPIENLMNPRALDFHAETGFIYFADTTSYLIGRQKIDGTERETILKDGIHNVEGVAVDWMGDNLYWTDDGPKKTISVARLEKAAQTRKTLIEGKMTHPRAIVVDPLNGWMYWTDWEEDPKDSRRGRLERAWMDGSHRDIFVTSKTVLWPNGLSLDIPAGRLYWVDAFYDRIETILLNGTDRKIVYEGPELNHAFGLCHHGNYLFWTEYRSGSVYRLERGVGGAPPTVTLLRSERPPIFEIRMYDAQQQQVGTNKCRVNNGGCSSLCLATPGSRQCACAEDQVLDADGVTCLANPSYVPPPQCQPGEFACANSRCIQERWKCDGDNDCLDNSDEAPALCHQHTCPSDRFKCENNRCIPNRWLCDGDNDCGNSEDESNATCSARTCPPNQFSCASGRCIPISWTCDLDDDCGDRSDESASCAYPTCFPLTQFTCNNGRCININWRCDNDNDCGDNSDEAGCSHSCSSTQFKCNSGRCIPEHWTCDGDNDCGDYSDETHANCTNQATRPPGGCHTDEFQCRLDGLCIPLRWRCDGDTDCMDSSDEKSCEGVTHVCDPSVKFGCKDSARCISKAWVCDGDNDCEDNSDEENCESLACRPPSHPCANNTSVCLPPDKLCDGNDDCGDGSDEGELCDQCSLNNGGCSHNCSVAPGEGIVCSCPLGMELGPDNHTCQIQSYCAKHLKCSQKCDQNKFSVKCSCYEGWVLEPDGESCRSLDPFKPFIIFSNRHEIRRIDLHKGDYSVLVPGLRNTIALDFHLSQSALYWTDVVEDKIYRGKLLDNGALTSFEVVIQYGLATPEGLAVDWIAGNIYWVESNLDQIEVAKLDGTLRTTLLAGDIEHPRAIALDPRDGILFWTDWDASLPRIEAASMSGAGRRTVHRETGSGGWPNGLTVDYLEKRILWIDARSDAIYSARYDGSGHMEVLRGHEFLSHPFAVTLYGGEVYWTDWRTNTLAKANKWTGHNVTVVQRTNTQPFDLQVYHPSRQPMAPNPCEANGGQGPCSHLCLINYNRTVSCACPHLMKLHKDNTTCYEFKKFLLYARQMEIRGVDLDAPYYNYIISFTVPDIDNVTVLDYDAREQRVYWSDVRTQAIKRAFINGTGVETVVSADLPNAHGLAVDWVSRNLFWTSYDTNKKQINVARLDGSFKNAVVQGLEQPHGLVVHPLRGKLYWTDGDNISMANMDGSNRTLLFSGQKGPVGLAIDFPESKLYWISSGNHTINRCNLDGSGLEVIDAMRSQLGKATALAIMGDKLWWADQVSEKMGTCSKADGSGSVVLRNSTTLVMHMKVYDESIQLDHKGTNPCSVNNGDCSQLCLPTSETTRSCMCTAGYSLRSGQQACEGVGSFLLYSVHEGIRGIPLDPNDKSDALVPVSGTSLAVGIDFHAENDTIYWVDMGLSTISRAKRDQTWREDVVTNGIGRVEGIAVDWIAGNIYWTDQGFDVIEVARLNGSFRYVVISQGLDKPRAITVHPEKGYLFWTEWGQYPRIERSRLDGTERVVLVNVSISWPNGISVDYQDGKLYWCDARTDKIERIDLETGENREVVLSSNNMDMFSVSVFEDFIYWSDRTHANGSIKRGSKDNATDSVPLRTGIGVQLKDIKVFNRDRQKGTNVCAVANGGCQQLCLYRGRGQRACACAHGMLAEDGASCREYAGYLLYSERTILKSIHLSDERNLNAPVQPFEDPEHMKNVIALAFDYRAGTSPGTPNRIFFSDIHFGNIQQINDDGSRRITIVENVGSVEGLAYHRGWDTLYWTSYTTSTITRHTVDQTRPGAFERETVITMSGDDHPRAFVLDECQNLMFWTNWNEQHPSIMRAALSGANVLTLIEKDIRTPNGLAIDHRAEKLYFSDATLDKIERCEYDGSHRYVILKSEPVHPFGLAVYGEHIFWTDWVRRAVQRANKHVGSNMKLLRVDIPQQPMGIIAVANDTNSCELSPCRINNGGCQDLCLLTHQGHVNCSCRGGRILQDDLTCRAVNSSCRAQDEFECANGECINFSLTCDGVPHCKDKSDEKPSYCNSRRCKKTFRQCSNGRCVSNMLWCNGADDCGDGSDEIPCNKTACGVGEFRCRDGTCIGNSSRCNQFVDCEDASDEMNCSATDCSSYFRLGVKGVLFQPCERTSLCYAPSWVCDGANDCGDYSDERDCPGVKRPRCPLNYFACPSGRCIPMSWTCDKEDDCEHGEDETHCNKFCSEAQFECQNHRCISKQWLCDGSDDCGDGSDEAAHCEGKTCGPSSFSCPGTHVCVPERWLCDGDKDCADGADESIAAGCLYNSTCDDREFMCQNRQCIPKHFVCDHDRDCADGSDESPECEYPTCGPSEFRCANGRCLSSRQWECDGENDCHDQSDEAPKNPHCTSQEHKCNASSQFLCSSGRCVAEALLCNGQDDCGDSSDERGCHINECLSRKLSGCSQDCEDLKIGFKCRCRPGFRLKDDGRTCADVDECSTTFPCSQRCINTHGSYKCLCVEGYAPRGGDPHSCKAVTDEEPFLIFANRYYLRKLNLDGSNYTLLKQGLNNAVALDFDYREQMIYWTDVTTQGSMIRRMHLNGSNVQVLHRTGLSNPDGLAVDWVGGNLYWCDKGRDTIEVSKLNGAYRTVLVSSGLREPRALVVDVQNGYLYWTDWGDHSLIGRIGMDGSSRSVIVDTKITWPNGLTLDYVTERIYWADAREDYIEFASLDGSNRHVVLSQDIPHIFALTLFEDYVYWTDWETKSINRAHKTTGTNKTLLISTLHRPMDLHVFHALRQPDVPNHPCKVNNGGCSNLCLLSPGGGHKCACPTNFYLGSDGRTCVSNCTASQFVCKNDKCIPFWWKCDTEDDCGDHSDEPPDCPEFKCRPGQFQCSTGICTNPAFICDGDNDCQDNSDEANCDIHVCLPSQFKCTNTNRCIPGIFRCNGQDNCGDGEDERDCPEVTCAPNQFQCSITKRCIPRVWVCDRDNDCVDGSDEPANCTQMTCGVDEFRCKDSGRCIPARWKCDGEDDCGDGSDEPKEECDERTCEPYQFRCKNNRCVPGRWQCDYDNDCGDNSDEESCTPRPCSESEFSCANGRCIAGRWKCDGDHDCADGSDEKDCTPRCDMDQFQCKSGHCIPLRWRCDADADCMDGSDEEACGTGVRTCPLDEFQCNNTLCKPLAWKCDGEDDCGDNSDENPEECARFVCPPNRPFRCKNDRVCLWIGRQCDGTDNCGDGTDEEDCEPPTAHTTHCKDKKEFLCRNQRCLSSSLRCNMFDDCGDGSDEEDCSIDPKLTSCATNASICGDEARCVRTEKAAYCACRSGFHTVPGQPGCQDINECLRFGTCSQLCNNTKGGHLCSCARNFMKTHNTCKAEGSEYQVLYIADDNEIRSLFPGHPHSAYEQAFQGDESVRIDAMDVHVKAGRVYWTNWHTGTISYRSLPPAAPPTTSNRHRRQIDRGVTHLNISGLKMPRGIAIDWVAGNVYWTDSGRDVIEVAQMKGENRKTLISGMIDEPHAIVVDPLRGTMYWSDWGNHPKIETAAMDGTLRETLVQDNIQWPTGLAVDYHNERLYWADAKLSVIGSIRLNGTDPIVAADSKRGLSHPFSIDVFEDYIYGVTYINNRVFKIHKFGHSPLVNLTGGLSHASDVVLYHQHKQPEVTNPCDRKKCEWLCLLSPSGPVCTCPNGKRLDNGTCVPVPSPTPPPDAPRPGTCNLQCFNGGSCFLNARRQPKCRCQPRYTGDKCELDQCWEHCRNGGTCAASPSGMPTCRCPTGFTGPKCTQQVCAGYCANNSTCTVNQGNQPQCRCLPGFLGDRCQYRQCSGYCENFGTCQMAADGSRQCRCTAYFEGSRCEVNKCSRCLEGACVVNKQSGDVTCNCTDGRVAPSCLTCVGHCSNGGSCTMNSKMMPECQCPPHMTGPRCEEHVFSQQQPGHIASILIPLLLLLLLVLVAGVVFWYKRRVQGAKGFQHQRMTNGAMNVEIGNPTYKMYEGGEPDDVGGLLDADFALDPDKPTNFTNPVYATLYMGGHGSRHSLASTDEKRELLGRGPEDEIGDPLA
UniProt P02790: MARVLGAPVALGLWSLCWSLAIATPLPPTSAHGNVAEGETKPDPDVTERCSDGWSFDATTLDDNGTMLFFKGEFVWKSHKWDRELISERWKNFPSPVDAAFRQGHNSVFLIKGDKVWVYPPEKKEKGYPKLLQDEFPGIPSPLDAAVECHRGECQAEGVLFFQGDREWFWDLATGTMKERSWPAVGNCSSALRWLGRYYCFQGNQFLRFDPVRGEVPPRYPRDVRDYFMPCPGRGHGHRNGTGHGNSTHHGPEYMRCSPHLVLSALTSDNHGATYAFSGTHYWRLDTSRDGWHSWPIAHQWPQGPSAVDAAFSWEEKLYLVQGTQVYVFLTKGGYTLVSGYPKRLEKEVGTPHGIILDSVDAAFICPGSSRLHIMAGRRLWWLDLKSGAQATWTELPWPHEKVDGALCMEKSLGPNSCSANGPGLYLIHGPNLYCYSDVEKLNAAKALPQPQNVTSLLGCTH

Substance	binding
HuHemopexin-HuHaptoglobin2FS(148-406)-8His (from UniProt P02790 24-462; P00738 162-406)	binds
heme:Hx-Hp complex (from UniProt P02790 24-462; P00738 162-406)	binds
